The record followed here is paper PMC3569449.

Sequences of proteins named here, by UniProt entry; tags and fusion partners are left off. A change or cut given only in a name is not applied to a line headed by its entry.
UniProt Q9UI12: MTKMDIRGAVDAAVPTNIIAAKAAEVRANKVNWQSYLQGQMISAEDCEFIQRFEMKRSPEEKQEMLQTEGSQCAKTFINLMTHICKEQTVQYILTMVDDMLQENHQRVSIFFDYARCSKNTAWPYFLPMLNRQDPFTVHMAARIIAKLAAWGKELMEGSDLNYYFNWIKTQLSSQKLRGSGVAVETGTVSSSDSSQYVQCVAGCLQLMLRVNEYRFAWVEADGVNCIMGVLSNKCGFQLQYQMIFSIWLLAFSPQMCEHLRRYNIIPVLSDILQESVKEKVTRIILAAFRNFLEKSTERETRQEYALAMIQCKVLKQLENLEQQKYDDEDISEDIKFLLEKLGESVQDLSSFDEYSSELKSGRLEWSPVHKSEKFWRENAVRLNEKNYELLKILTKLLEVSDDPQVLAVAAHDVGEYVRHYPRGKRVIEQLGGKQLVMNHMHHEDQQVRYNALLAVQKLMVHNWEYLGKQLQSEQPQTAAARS
UniProt P36543: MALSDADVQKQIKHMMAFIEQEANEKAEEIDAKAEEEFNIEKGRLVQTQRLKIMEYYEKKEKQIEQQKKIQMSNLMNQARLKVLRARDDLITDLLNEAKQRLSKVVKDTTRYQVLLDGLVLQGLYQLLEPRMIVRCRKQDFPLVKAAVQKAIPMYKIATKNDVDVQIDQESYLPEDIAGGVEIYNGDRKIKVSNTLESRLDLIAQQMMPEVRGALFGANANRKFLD

In this test the target is Human V-ATPase subunit H (non-tagged) (human) (UniProt Q9UI12). Kind of test: condition: only with equimolar C1 (E1G1:C1:H 1:1:1); SEC; equimolar (1:1:1) mixture of E1G1, C1 and H; Superdex 200, conditions as for the other gel filtrations; both purified. (In general: In gel filtration, larger molecules generally elute earlier.)

Results are given in words; binding and its absence hold for the method and conditions named.

For “E1G1 heterodimer of human V-ATPase (subunits E1 and G1, co-expressed and co-purified) (from UniProt P36543 1-226; O75348 1-118) (complex)”, the binding result was “no binding”.
